The target of test [1] is T1, FLAG-GLUT4 (human full length) expressed in C2C12 cells (human) (UniProt P14672).
T1 sequence: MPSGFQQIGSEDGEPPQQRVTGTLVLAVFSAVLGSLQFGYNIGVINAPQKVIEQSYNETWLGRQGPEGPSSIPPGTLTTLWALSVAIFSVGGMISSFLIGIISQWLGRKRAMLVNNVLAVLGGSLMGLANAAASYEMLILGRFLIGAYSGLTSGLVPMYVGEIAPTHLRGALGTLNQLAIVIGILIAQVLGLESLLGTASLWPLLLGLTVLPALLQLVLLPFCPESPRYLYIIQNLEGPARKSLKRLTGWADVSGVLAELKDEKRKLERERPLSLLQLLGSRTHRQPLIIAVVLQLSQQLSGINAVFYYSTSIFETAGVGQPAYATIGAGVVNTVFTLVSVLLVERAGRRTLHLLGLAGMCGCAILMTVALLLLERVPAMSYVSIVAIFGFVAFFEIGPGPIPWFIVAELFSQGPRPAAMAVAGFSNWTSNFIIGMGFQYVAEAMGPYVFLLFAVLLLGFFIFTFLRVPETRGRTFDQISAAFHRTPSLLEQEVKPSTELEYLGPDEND
The test can be described thus: co-IP.

Test [2] has as its target T2, FLAG-MDA5 full length (FL) (UniProt Q9BYX4).
T2 sequence: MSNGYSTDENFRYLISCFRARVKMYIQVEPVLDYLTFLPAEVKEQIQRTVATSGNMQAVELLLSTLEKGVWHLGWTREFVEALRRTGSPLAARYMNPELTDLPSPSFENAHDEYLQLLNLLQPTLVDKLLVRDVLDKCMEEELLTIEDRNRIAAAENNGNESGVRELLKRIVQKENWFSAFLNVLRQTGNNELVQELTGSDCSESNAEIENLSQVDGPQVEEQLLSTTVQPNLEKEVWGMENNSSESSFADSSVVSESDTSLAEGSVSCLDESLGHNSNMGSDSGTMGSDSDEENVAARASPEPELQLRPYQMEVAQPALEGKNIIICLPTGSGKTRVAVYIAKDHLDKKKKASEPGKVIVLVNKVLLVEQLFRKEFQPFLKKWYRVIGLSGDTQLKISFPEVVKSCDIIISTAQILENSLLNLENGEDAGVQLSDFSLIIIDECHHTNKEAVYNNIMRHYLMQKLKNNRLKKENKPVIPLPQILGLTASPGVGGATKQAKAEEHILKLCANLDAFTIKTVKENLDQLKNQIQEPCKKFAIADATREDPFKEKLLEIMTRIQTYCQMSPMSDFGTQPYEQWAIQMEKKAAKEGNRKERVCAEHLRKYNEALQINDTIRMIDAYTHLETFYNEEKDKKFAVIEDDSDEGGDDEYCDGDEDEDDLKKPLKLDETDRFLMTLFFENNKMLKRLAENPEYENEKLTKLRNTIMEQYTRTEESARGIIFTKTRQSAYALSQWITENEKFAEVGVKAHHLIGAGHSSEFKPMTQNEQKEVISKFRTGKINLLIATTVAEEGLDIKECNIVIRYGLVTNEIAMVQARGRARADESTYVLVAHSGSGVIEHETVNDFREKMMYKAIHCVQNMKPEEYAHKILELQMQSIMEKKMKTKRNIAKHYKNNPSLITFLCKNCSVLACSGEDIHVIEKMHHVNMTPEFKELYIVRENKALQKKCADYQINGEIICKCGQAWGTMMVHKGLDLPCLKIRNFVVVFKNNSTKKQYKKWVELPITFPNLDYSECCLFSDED
The test can be described thus: co-IP; HEK293T cells transfected with FLAG-tagged RIG-I or MDA5 constructs and Myc-tagged GLUT4; anti-FLAG magnetic beads on lysate (2% DDM, 25mM HEPES, 150mM NaCl).

The target of test [3] is T3, FLAG-RIG-I full length (FL) (human) (UniProt O95786).
T3 sequence: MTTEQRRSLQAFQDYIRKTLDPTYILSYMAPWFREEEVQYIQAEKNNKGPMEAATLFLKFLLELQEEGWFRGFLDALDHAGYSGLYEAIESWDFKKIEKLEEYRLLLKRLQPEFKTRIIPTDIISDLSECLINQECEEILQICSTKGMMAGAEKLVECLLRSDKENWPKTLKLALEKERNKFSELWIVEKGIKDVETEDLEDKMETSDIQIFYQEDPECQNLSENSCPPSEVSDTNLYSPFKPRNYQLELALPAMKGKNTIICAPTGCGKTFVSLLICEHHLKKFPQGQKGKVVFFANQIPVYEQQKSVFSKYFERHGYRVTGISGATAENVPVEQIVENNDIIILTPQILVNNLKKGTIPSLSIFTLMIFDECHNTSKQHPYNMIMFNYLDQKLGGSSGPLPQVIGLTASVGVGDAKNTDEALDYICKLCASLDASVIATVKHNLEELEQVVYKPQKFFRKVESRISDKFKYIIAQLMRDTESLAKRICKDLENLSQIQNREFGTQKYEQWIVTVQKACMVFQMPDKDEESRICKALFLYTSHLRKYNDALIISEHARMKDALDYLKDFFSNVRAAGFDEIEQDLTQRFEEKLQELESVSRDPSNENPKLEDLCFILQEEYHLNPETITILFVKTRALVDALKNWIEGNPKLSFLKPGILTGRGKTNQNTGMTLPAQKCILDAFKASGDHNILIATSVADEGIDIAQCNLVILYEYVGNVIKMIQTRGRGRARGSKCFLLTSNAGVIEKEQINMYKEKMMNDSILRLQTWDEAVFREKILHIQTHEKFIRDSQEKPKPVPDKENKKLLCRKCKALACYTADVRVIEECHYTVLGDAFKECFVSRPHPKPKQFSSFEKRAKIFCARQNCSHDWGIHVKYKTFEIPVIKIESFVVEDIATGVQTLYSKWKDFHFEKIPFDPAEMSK
The test is described as above.

Test [4] addresses T4, FLAG-GLUT4 (human full length) expressed in HEK293T cells (human) (UniProt P14672).
T4 sequence: T1 sequence
The test can be described thus: co-IP; anti-FLAG magnetic beads on lysate (2% DDM, 25mM HEPES, 150mM NaCl) of HEK293T cells transfected with FLAG-GLUT4 constructs; blot for endogenous RIG-I and UBXN9; vector pcDNA3.1-FLAG as control.

No constants are given. Whether binding was seen depends on the method and setting. In cells and extracts the contact can be indirect. Some results given as binding are weak or reduced against the parent protein; the word gives no strength. Sequences can lack the tags named with a protein.

B1: melanoma differentiation-associated protein 5 (MDA5), endogenous in C2C12 cells (protein, UniProt Q8R5F7 1-1025)
chain: MSIVCSAEDSFRNLILFFRPRLKMYIQVEPVLDHLIFLSAETKEQILKKINTCGNTSAAELLLSTLEQGQWPLGWTQMFVEALEHSGNPLAARYVKPTLTDLPSPSSETAHDECLHLLTLLQPTLVDKLLINDVLDTCFEKGLLTVEDRNRISAAGNSGNESGVRELLRRIVQKENWFSTFLDVLRQTGNDALFQELTGGGCPEDNTDLANSSHRDGPAANECLLPAVDESSLETEAWNVDDILPEASCTDSSVTTESDTSLAEGSVSCFDESLGHNSNMGRDSGTMGSDSDESVIQTKRVSPEPELQLRPYQMEVAQPALDGKNIIICLPTGSGKTRVAVYITKDHLDKKKQASESGKVIVLVNKVMLAEQLFRKEFNPYLKKWYRIIGLSGDTQLKISFPEVVKSYDVIISTAQILENSLLNLESGDDDGVQLSDFSLIIIDECHHTNKEAVYNNIMRRYLKQKLRNNDLKKQNKPAIPLPQILGLTASPGVGAAKKQSEAEKHILNICANLDAFTIKTVKENLGQLKHQIKEPCKKFVIADDTRENPFKEKLLEIMASIQTYCQKSPMSDFGTQHYEQWAIQMEKKAAKDGNRKDRVCAEHLRKYNEALQINDTIRMIDAYSHLETFYTDEKEKKFAVLNDSDKSDDEASSCNDQLKGDVKKSLKLDETDEFLMNLFFDNKKMLKKLAENPKYENEKLIKLRNTILEQFTRSEESSRGIIFTKTRQSTYALSQWIMENAKFAEVGVKAHHLIGAGHSSEVKPMTQTEQKEVISKFRTGEINLLIATTVAEEGLDIKECNIVIRYGLVTNEIAMVQARGRARADESTYVLVTSSGSGVTEREIVNDFREKMMYKAINRVQNMKPEEYAHKILELQVQSILEKKMKVKRSIAKQYNDNPSLITLLCKNCSMLVCSGENIHVIEKMHHVNMTPEFKGLYIVRENKALQKKFADYQTNGEIICKCGQAWGTMMVHKGLDLPCLKIRNFVVNFKNNSPKKQYKKWVELPIRFPDLDYSEYCLYSDED
As for B1, in test [1], the binding entry is given as “binds”.

B2: retinoic acid inducible gene I (RIG-I), endogenous in C2C12 cells (protein, UniProt Q6Q899 1-926)
chain: MTAEQRQNLQAFRDYIKKILDPTYILSYMSSWLEDEEVQYIQAEKNNKGPMEAASLFLQYLLKLQSEGWFQAFLDALYHAGYCGLCEAIESWDFQKIEKLEEHRLLLRRLEPEFKATVDPNDILSELSECLINQECEEIRQIRDTKGRMAGAEKMAECLIRSDKENWPKVLQLALEKDNSKFSELWIVDKGFKRAESKADEDDGAEASSIQIFIQEEPECQNLSQNPGPPSEASSNNLHSPLKPRNYQLELALPAKKGKNTIICAPTGCGKTFVSLLICEHHLKKFPCGQKGKVVFFANQIPVYEQQATVFSRYFERLGYNIASISGATSDSVSVQHIIEDNDIIILTPQILVNNLNNGAIPSLSVFTLMIFDECHNTSKNHPYNQIMFRYLDHKLGESRDPLPQVVGLTASVGVGDAKTAEEAMQHICKLCAALDASVIATVRDNVAELEQVVYKPQKISRKVASRTSNTFKCIISQLMKETEKLAKDVSEELGKLFQIQNREFGTQKYEQWIVGVHKACSVFQMADKEEESRVCKALFLYTSHLRKYNDALIISEDAQMTDALNYLKAFFHDVREAAFDETERELTRRFEEKLEELEKVSRDPSNENPKLRDLYLVLQEEYHLKPETKTILFVKTRALVDALKKWIEENPALSFLKPGILTGRGRTNRATGMTLPAQKCVLEAFRASGDNNILIATSVADEGIDIAECNLVILYEYVGNVIKMIQTRGRGRARDSKCFLLTSSADVIEKEKANMIKEKIMNESILRLQTWDEMKFGKTVHRIQVNEKLLRDSQHKPQPVPDKENKKLLCGKCKNFACYTADIRVVETSHYTVLGDAFKERFVCKPHPKPKIYDNFEKKAKIFCAKQNCSHDWGIFVRYKTFEIPVIKIESFVVEDIVSGVQNRHSKWKDFHFERIQFDPAEMSV
With B2, in test [1], the binding entry is given as “binds”.

B3: GLUT4 (Myc-tagged) expressed in HEK293T cells (protein, UniProt P14672 1-509)
chain: T1 sequence
In the case of B3, the binding entry in test [2] and in test [3] was “binds” in each case.

B4: ubiquitin regulatory X domain 9 (UBXN9, TUG), endogenous in HEK293T cells (protein, UniProt Q9BZE9 1-553)
chain: MAAPAGGGGSAVSVLAPNGRRHTVKVTPSTVLLQVLEDTCRRQDFNPCEYDLKFQRSVLDLSLQWRFANLPNNAKLEMVPASRSREGPENMVRIALQLDDGSRLQDSFCSGQTLWELLSHFPQIRECLQHPGGATPVCVYTRDEVTGEAALRGTTLQSLGLTGGSATIRFVMKCYDPVGKTPGSLGSSASAGQAAASAPLPLESGELSRGDLSRPEDADTSGPCCEHTQEKQSTRAPAAAPFVPFSGGGQRLGGPPGPTRPLTSSSAKLPKSLSSPGGPSKPKKSKSGQDPQQEQEQERERDPQQEQERERPVDREPVDREPVVCHPDLEERLQAWPAELPDEFFELTVDDVRRRLAQLKSERKRLEEAPLVTKAFREAQIKEKLERYPKVALRVLFPDRYVLQGFFRPSETVGDLRDFVRSHLGNPELSFYLFITPPKTVLDDHTQTLFQANLFPAALVHLGAEEPAGVYLEPGLLEHAISPSAADVLVARYMSRAAGSPSPLPAPDPAPKSEPAAEEGALVPPEPIPGTAQPVKRSLGKVPKWLKLPASKR
In the case of B4, the binding result in test [4] was “binds”.
